No constants are given. Whether binding was seen depends on the method and setting. Some binding calls cover weakened binding; strength is not graded here.
Target: SH3 domain-containing YSC84-like 1 (SH3YL1), antigen of the antibodies (human) (UniProt Q96HL8)
Experiment: peptide microarray of SH3YL1 peptides

Protein sequences, listed by entry. Tags and fused reporters are not part of them. Lines headed by an entry give the natural chain unless they say otherwise; changes in a name come on top.
UniProt Q96HL8: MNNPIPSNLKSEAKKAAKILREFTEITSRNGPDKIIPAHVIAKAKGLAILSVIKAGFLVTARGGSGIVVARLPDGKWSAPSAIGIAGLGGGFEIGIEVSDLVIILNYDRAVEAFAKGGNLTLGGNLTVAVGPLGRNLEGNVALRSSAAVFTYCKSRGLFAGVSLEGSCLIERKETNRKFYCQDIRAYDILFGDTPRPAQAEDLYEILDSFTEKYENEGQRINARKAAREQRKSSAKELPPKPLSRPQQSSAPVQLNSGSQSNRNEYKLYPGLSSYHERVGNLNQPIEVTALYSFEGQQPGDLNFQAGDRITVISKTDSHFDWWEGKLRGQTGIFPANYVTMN

| binding | Binder |
| --- | --- |
| binds | A3 antibody (human IgG1) (antibody, V domains shown) VH: EVQLLESGGGLVQPGGSLRLSCAASGFTFSNYAMSWVRQAPGKGLEWVSVISSDNSSTYYADSVKGRYTISRDNSKNTLYLQMNSLRAEDTAVYYCARVWRHFDYWGQGTLVTVSS VL: QSVLTQPPSASGTPGQRVTISCSGSSSNIGSNNVNWYQQLPGTAPKLLIYADSHRPSGVPDRFSGSKSGTSASLAISGLRSEDEADYYCASWDSSLSGYVFGGGTKLTVLG |
| binds | A4 antibody (human IgG1) (antibody, V domains shown) VH: EVQLLESGGGLVQPGGSLRLSCAASGFTFSNYYMSWVRQAPGKGLEWVSAISHNNSNTYYADSVKGRFTISRDNSKNTLYLQMNSLRAEDTAVYYCARKFSFFDYWGQGTLVTVSS VL: QSVLTQPPSASGTPGQRVTISCSGSSSNIGSNYVSWYQQLPGTAPKLLIYANSHRPSGVPDRFSGSKSGTSASLAISGLRSEDEADYYCGAWDSSLNGYVFGGGTKLTVLG |

Reference: patent US20260109755A1
